Earlier results as cited in US20150231109A1, “COMBINATIONS (CATECHINS AND METHOTREXATE) FOR USE IN THE TREATMENT OF MELANOMAS” (UNIVERSIDAD DE MURCIA, priority 2012, published 2015).
For at least one compound, name, drawing or mass did not settle the structure.

Tested on: metastatic melanomas
Conditions: patients with metastatic melanoma; cited from earlier work

Question: Which median survival does the source give for CN(C)/N=N/c1[nH]cnc1C(N)=O [dacarbazine] here?
Answer: Its median survival is 8-9 months.
